Measurements: patent publication US20230365673A1, “MEANS FOR REDUCING RADIO- AND CHEMOTHERAPY RESISTANCE AND ADVERSE EFFECTS” (JOHANN WOLFGANG GOETHE-UNIVERSITÄT FRANKFURT AM MAIN, priority 2020, published 2023)
At least one compound was matched to its structure with a doubt left.

Test system: APTKA orthotopic tumours
Test: Orthotopic APTKA organoid rectal cancer model with local fractionated radiotherapy (5×2 Gy)
Format: in vivo, C57BL/6 mice
Settings: venetoclax 100 mg/kg/day plus 5×2 Gy
Text: (A and B) Schematic representation of the orthotopic transplantation of APTKA & APTK mouse organoids into C57BL/6 mice followed by local fractionated radiotherapy (5×2 Gy) of established tumours and end point colonoscopy 21 days after the last irradiation. (C) Heat map analysis of RNA sequencing data of APTKA (n=4) and APTK (n=5) orthotopic tumours. (D) GSEA of CAF signature using RNA sequencing data of APTKA and APTK orthotopic tumours. Significant NES≤−1; FDR q-value<0.05. (E) H&E stained sections of APTK and APTKA untreated and irradiated orthotopic tumours 21 days after last irradiation. Scale bars=500 μm. (F and G) Overall tumour (mm3) and invasive area (%) of untreated (n=5) and irradiated (n=6) APTK orthotopic tumours. Data are mean±SD. *** p<0.001 and **** p<0.0001 by t-test. (H and I) Overall tumour (mm3) and invasive area (%) of untreated (n=5) and irradiated (n=5) APTKA orthotopic tumours. ** p<0.01 by t-test. Data are mean±SD. (J) Frequency of mice with liver metastasis in untreated or irradiated APTKA orthotopic tumours (n=5 mice per group). (K) H&E staining of untreated and irradiated APTKA orthotopic tumours. Scale bars=300 μm. Representative images of αSMA (Green), Vimentin (Blue) and Collagen (Yellow) multiplex immunofluorescence of untreated and irradiated APTKA tumours. Scale bars=400 μm. Sirius red staining of APTKA orthotopic tumours upon radiotherapy. Scale bars=300 μm. (L) Percent of αSMA, Vim and Col1 triple positive cells in untreated (n=9) and irradiated (n=10) APTKA tumours. Data are mean±SD. ** p<0.01 by t-test. (M) Sirius red pixel positivity in untreated (n=7) and irradiated (n=6) APTKA tumours. Data are mean±SD. * p<0.05 by t-test. (N-P) Ex vivo irradiation (5×2Gy) of APTKA and APTK organoids: (N) relative fluorescent units of untreated and irradiated organoids, 6 h post last dose, using resazurin cell viability kit (n=4 independent wells per condition); (O) quantification of the number of fully grown untreated and irradiated organoids 4 days' post first reseeding (n=7 to 9 independent wells per condition); (P) subcutaneous tumour growth in C57BL/6 mice transplanted with untreated or irradiated organoids. Data are mean±SD. N=6 mice per group; p<0.05 by one-way ANOVA followed by Tukey's multiple comparisons test. Representative results from one experiment which has been independently repeated least 3 times.
(A) Schematic representation of the orthotopic transplantation of APTKA mouse organoids into C57BL/6 mice followed by 5×2 Gy radiotherapy of established tumours untreated or treated daily with anakinra (500 μg/day) for 21 days. (B and C) Overall tumour size (mm3) and % invasive area of 5×2Gy radiated APTKA orthotopic tumours 21 days after last irradiation without (n=5) or with (n=4) anakinra treatment (500 μg/day). Data are mean±SD; p<0.05 by t-test. (D) Frequency of mice with liver metastasis upon irradiation of APTKA orthotopic tumours without (n=5) or with (n=4) anakinra treatment (500 μg/day). (E and F) Sirius red staining of untreated (n=3) or anakinra treated (n=4) 5×2 Gy irradiated APTKA tumours. Scale bars=200 μm. Data are mean±SD. *** p<0.001 by t-test. (G, H) αSMA immunofluorescent staining and its quantification of irradiated APTKA orthotopic tumours without (n=5) or with (n=4) anakinra treatment (500 μg/day). Scale bars=200 μm. Data are mean±SD; p<0.05 by t-test. (I) Schematic representation of IL-1α overexpression in APTK organoids by CRISPRa/Cas9. […]

CC1(C)CCC(CN2CCN(c3ccc(C(=O)NS(=O)(=O)c4ccc(NCC5CCOCC5)c([N+](=O)[O-])c4)c(Oc4cnc5[nH]ccc5c4)c3)CC2)=C(c2ccc(Cl)cc2)C1 [venetoclax]
formation of liver metastases: suppressed invasion and formation of liver metastases
sirius red staining: decrease in sirius red staining
α-SMA+/vimentin+ cell number: decrease in sirius red staining and α-SMA+/vimentin+cell number
invasion (% invasive area) (21 days post RT): suppressed invasion
tumour load (overall tumour size) (21 days post RT): significant decrease in tumour load
